From article PMC2360413
These are yes or no findings as the source states them, for the method shown. Binding seen in cells or lysates may run through a third protein. A yes stands for co-enrichment or nearness to the bait. Other partners may have been found.

Protein sequences, listed by entry. Tags and fused reporters are not part of them. Residues count along the entry.
UniProt P21926: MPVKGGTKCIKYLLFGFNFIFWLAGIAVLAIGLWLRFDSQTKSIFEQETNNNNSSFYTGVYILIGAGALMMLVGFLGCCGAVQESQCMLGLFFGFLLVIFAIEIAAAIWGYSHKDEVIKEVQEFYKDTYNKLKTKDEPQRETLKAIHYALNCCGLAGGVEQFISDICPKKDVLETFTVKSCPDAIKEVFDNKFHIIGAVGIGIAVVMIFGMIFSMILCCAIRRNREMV
UniProt P38646, residues 47-679: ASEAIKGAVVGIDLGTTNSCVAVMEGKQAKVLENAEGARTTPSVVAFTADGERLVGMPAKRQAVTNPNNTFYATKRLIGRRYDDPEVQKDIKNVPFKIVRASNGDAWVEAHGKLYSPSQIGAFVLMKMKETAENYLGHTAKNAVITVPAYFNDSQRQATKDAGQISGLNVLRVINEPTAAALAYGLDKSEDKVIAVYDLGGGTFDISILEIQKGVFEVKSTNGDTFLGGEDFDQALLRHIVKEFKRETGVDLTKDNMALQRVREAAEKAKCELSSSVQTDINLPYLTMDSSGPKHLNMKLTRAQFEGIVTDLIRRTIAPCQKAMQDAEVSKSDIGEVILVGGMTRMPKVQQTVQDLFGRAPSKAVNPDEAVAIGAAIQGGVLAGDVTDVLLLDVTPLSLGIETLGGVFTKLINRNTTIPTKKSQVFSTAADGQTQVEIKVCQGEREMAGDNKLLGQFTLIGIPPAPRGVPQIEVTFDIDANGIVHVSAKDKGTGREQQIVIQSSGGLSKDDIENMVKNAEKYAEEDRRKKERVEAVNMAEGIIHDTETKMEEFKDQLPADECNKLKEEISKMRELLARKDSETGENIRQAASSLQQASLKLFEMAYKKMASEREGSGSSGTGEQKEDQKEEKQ

Molecular target: Cluster-of-differentiation antigen 9 (CD9) (human (endogenous in PC-3 and PC-3M-LN4)) (UniProt P21926)
Assay: affinity purification with mass spectrometry; 1 mg precleared 1% Brij 97 lysate of PC-3 and PC-3M-LN4 cells, overnight with anti-CD9 mAb MM2/57 and protein G Sepharose; non-reducing SDS-PAGE, silver staining, 75-kDa band excised, MALDI-TOF MS

HSPA9B protein, also known as mortalin (from UniProt P38646 47-679)
binding: binds
